The text below walks through data of article PMC12650596.

Amino acid sequences for entries named in this document (tags omitted). Residues count along the entry.
UniProt P17301, residues 30-1181: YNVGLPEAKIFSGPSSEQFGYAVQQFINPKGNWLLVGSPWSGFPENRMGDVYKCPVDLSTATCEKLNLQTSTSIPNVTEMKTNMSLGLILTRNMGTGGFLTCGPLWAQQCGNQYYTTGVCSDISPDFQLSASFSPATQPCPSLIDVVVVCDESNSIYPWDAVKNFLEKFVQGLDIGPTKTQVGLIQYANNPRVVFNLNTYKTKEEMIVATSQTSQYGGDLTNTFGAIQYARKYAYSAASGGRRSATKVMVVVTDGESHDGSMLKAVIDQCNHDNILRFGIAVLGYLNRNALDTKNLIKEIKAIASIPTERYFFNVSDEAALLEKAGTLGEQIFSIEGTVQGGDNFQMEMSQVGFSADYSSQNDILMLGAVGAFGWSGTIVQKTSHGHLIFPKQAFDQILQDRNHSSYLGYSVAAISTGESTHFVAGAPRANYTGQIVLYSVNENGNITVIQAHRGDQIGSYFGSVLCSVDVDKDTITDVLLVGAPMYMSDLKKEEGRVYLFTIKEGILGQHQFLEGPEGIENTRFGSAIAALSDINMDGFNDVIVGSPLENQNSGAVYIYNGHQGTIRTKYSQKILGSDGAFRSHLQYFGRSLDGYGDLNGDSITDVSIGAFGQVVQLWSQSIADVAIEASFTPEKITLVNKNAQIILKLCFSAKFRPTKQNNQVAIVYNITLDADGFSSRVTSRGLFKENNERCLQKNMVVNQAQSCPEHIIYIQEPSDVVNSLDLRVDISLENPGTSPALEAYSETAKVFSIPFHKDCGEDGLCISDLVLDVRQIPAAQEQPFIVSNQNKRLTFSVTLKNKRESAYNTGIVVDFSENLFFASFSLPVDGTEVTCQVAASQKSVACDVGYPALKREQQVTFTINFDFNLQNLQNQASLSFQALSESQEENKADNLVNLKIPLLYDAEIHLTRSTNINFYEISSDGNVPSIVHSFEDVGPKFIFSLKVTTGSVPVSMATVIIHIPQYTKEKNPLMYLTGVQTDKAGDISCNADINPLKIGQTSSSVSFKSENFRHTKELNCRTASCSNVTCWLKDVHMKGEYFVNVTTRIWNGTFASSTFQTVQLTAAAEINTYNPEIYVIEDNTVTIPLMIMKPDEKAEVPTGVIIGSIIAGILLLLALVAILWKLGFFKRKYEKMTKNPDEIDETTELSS

Assay [1] addresses T1, EGFP-hPMP22-BioID2 recombinant fusion protein (peripheral myelin protein 22) (human) (UniProt Q01453).
T1 sequence: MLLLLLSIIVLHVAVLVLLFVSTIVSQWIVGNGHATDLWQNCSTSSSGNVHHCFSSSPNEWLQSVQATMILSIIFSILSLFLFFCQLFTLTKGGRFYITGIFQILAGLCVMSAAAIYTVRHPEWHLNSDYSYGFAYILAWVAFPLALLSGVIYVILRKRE
The assay is described as follows: proximity labelling; BioID2 pull-downs (streptavidin beads) of the three cell lines cultured for 3 days, input and bound fractions on western blot with anti-ITGA2.

For assay [2], the target named is T1, EGFP-hPMP22-BioID2 recombinant fusion protein (peripheral myelin protein 22) (human). The assay is described as follows: proximity labelling; BioID2 in live stably transfected human Schwann cells, 50 µM biotin for 3 days; RIPA extract, streptavidin Dynabeads pull-down of biotinylated proteins, trypsin digest, LC-MS/MS; compared with control-transfected (EGFP-BioID2) and untransfected CRL cells.

These are yes or no findings as the source states them, for the method shown. In cells and extracts the contact can be indirect. These calls come from enrichment with a bait or labelling near it, and not all partners need be listed. Where a sequence is shown, tags or fusion partners need not be part of it.

Consider “Integrin alpha-2 (ITGA2) (from UniProt P17301 30-1181) (receptor)”, for which the binding entry in assay [1] and in assay [2] was “binds” throughout.

B1: Phospholipid-transporting ATPase IC (ATP8B1) (protein, UniProt O43520 1-1251)
chain: MSTERDSETTFDEDSQPNDEVVPYSDDETEDELDDQGSAVEPEQNRVNREAEENREPFRKECTWQVKANDRKYHEQPHFMNTKFLCIKESKYANNAIKTYKYNAFTFIPMNLFEQFKRAANLYFLALLILQAVPQISTLAWYTTLVPLLVVLGVTAIKDLVDDVARHKMDKEINNRTCEVIKDGRFKVAKWKEIQVGDVIRLKKNDFVPADILLLSSSEPNSLCYVETAELDGETNLKFKMSLEITDQYLQREDTLATFDGFIECEEPNNRLDKFTGTLFWRNTSFPLDADKILLRGCVIRNTDFCHGLVIFAGADTKIMKNSGKTRFKRTKIDYLMNYMVYTIFVVLILLSAGLAIGHAYWEAQVGNSSWYLYDGEDDTPSYRGFLIFWGYIIVLNTMVPISLYVSVEVIRLGQSHFINWDLQMYYAEKDTPAKARTTTLNEQLGQIHYIFSDKTGTLTQNIMTFKKCCINGQIYGDHRDASQHNHNKIEQVDFSWNTYADGKLAFYDHYLIEQIQSGKEPEVRQFFFLLAVCHTVMVDRTDGQLNYQAASPDEGALVNAARNFGFAFLARTQNTITISELGTERTYNVLAILDFNSDRKRMSIIVRTPEGNIKLYCKGADTVIYERLHRMNPTKQETQDALDIFANETLRTLCLCYKEIEEKEFTEWNKKFMAASVASTNRDEALDKVYEEIEKDLILLGATAIEDKLQDGVPETISKLAKADIKIWVLTGDKKETAENIGFACELLTEDTTICYGEDINSLLHARMENQRNRGGVYAKFAPPVQESFFPPGGNRALIITGSWLNEILLEKKTKRNKILKLKFPRTEEERRMRTQSKRRLEAKKEQRQKNFVDLACECSAVICCRVTPKQKAMVVDLVKRYKKAITLAIGDGANDVNMIKTAHIGVGISGQEGMQAVMSSDYSFAQFRYLQRLLLVHGRWSYIRMCKFLRYFFYKNFAFTLVHFWYSFFNGYSAQTAYEDWFITLYNVLYTSLPVLLMGLLDQDVSDKLSLRFPGLYIVGQRDLLFNYKRFFVSLLHGVLTSMILFFIPLGAYLQTVGQDGEAPSDYQSFAVTIASALVITVNFQIGLDTSYWTFVNAFSIFGSIALYFGIMFDFHSAGIHVLFPSAFQFTGTASNALRQPYIWLTIILAVAVCLLPVVAIRFLSMTIWPSESDKIQKHRKRLKAEEQWQRRQQVFRRGVSTRRSAYAFSHQRGYADLISSGRSIRKKRSPLDAIVADGTAEYRRTGDS
In the case of B1, the binding result in assay [2] was “binds”.
